From the supplement of paper PMC12823440, “Inhibitors supercharge kinase turnover through native proteolytic circuits” (Nature, 2025)
Structures can show the parent of a compound that is named as a salt. The list shows a part of the results. The calls rarely recur for the same compound in another form.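 Kinases were expressed as nanoluciferase fusions in K562 cells and luminescence was read every 4 h between 2 and 18 h as percent of control, DMSO set to 100% and a positive control to 0%. A time point counts as decreased when the signal drops significantly (2 sigma). The hit call is the authors' own, does not follow from the count of time points alone, and its rule is not shown.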

By UniProt entry, the sequences of proteins in these tests, tags left out.
UniProt Q00535, whole entry, looked up: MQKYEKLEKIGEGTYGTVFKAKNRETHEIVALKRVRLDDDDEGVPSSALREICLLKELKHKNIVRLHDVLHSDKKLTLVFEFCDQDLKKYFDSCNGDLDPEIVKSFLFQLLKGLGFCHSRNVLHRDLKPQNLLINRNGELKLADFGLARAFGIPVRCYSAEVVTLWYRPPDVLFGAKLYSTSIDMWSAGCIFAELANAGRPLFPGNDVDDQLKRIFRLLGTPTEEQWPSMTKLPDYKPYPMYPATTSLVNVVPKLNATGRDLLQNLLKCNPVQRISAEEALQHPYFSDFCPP

target: CDK5 (UniProt Q00535); assay: number of time points (of 5) at which kinase-Nluc abundance scored as decreased, DMSO-normalised (count); higher = more persistent destabilization; conditions: K562; 2-18 h

Row | SMILES | number of time points
1 | Cn1c(N2CCO[C@@H](c3ccc(F)cc3)C2)nc(-c2ccncn2)cc1=O (10 µM) | 0
2 | C[C@@H](NC(=O)c1ncnc(N)c1Cl)c1ncc(C(=O)Nc2cc(C(F)(F)F)c(Cl)cn2)s1 (2.5 µM) | 0
3 | CO/N=C1/C(c2c(O)[nH]c3cc(Cl)c(Cl)cc23)=Nc2ccccc21 (10 µM) | 0
4 | Cc1n[nH]c2ncc(C(=O)N3CCC[C@H]3c3ccc(Cl)cc3)cc12 (10 µM) | 0
5 | Cc1ccc(Nc2cc(N[C@@H]3CCCC[C@@H]3N)nnc2C(N)=O)nc1C (2 µM) | 0
6 | NC(=O)c1cnc(N[C@@H]2CCCC[C@@H]2N)nc1Nc1cccc(-n2nccn2)c1 (2.5 µM) | 0
7 | CCc1c(C(=O)NNC(=O)[C@H](O)c2cc(F)cc(F)c2)ccc(O)c1C (10 µM) | 0
8 | CC/C(=C(\c1ccccc1)c1ccc(OCCNC)cc1)c1ccccc1 [N-Desmethyltamoxifen (hydrochloride)] (2.5 µM) | 0
9 | CCCCNc1ncc(C(=O)NCc2ccc(-n3ccnc3)cc2)c(NC2CCC(O)CC2)n1 (centres undefined) (10 µM) | 0
10 | Oc1ccc(-c2cnc3ccc(NCc4ccco4)nn23)cc1 [IRAK inhibitor 2] (2.5 µM) | 0
11 | CS(=O)(=O)c1ccc([C@@H](CC2CCCC2)C(=O)Nc2nccs2)cc1 (10 µM) | 0
12 | CC(=O)O/N=C1/C(c2c(O)[nH]c3cc(Br)ccc23)=Nc2ccccc21 [BIO-acetoxime] (10 µM) | 0
13 | COc1cc2nc(-c3cc(F)ccc3O)nc(N[C@@H]3CNC[C@H]3C(C)(C)O)c2cc1OC (2.5 µM) | 0
14 | CS(=O)(=O)c1cccc(CNc2nc(Nc3ccc4c(c3)CCC(=O)N4)ncc2C(F)(F)F)c1 (10 µM) | 0
15 | Nc1nc(Nc2ccc3c(c2)CC[C@@H](N2CCCC2)CC3)nn1-c1cc2c(nn1)-c1ccccc1CCC2 [Bemcentinib] (2.5 µM) | 0
16 | Nc1[nH]nc2nnc(-c3c(-c4ccccc4)nn4ccccc34)cc12 (10 µM) | 0
17 | CN1CCN(Cc2ccc(-c3cnc4[nH]cc(-c5ccc6[nH]ccc6c5)c4c3)cc2)CC1 (2.5 µM) | 0
18 | CC(C)n1cnc2c(Nc3cccc(Cl)c3)nc(N[C@H]3CCCC[C@@H]3N)nc21 (2.5 µM) | 0
19 | CCC(F)(F)c1cc(N2CCC(S(C)(=O)=O)CC2)nc2sc(C(N)=O)c(N)c12 (10 µM) | 0
20 | CC(C)c1cc2c(c(O)c1O)[C@@]13CCCC(C)(C)[C@@H]1C[C@@H]2OC3=O [Carnosol] (2.5 µM) | 0

Row | SMILES | number of time points
21 | COc1ccc2nc3ccc(OC)cc3c(SCCCN)c2c1 (10 µM) | 0
22 | COc1cc2nnc(C(N)=O)c(Nc3ccc(C)cc3F)c2cc1N1CCN(CCO)CC1 (2.5 µM) | 0
23 | Nc1ccc(C(=O)Nc2cccc(-c3nc(N4CCOCC4)c4oc5ncccc5c4n3)c2)cn1 (10 µM) | 0
24 | Cc1nn(CC(F)(F)F)cc1Nc1ncc(Br)c(NCc2ccc(S(N)(=O)=O)cc2)n1 (10 µM) | 0
25 | O=C1NC(=O)C(Cc2c[nH]c3c(Cl)cccc23)N1 (centres undefined) [Necroptosis-IN-1] (10 µM) | 0
26 | CCCCNc1ncc2c(-c3ccc(F)cc3)nn(CC3CCC(N)CC3)c2n1 (centres undefined) (2.5 µM) | 0
27 | Cn1cc(-c2nc(N[C@@H]3CCCC[C@@H]3N)c(F)c3c2C(=O)NC3)cn1 [TAK-659 (hydrochloride)] (2 µM) | 0
28 | O=C1OC(COc2ccccc2[N+](=O)[O-])CC1Cc1ccccc1 (centres undefined) (10 µM) | 0
29 | Cc1cnc(Nc2ccc(F)cc2Cl)nc1-c1c[nH]c(C(=O)N[C@H](CO)c2cccc(Cl)c2)c1 (10 µM) | 0
30 | N#Cc1cnc(Nc2cc(NC[C@H]3CNCCO3)c(C(F)(F)F)cn2)cn1 (10 µM) | 0
31 | CNc1cc2c(Nc3cccc(Br)c3)ncnc2cn1 (10 µM) | 0
32 | Cc1ncsc1-c1ccc(CNC(=O)[C@@H]2C[C@@H](O)CN2C(=O)[C@@H](NC(=O)COCCOc2ccc(-c3cc(Nc4ccc(OC(F)(F)F)cc4)ncn3)cc2)C(C)(C)C)cc1 (2.5 µM) | 0
33 | O=CN1CCN(c2ccc(C=C3C(=O)Nc4ccccc43)cc2)CC1 (10 µM) | 0
34 | CN1C(=O)[C@@H](NC(=O)c2cc(Cc3ccccc3)on2)COc2ccccc21 (10 µM) | 0
35 | O=C(CCl)c1c[nH]c2ccccc12 (2.5 µM) | 0
36 | NC(=O)c1c(NC(=O)C2CC2)sc2c1CCCC2 (10 µM) | 0
37 | CN(C)c1ccc(/C=C2\C(=O)Nc3ccccc32)c2ccccc12 (10 µM) | 0
38 | O=C(O)c1c[nH]c2cc(Cl)c(-c3ccc(C4(O)CCC4)cc3)cc12 (10 µM) | 0
39 | CC1=C(C#N)C(c2ccc3[nH]nc(C)c3c2)C(C#N)=C(C)N1 (10 µM) | 0

Two entries picked at random from the list so far:
Row | SMILES | number of time points
28 | O=C1OC(COc2ccccc2[N+](=O)[O-])CC1Cc1ccccc1 (centres undefined) (10 µM) | 0
30 | N#Cc1cnc(Nc2cc(NC[C@H]3CNCCO3)c(C(F)(F)F)cn2)cn1 (10 µM) | 0
